{"sequences": {"note": "The chains behind the UniProt entries cited, without tags or fusion partners. Where a name states a change or a piece, a line headed by the entry shows the natural chain unless it says otherwise.", "UniProt Q08050": "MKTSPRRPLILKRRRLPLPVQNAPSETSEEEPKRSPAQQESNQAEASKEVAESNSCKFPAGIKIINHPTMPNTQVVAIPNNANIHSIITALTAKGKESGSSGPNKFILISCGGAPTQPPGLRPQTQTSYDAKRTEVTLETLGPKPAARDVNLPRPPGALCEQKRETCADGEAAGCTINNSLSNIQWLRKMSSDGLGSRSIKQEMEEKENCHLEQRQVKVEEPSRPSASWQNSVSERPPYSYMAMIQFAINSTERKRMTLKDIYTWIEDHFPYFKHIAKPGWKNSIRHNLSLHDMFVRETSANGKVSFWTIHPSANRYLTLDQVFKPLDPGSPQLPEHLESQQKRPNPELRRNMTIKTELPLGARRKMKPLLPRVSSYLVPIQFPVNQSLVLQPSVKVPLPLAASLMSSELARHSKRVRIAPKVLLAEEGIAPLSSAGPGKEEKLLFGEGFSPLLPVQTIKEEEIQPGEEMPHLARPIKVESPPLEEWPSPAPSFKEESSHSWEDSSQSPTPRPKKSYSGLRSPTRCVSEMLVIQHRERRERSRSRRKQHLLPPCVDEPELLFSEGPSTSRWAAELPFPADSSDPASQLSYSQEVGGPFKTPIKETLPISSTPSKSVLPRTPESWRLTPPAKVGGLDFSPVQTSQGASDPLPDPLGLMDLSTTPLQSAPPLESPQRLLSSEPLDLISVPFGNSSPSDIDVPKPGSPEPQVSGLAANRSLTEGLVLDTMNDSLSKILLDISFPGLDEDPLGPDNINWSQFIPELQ"}, "source": "paper PMC5384083", "binders": {"B1": {"name": "GST-Rb (residues 379–928) (domain or fragment, UniProt P06400 379-928)", "chain": "MNTIQQLMMILNSASDQPSENLISYFNNCTVNPKESILKRVKDIGYIFKEKFAKAVGQGCVEIGSQRYKLGVRLYYRVMESMLKSEEERLSIQNFSKLLNDNIFHMSLLACALEVVMATYSRSTSQNLDSGTDLSFPWILNVLNLKAFDFYKVIESFIKAEGNLTREMIKHLERCEHRIMESLAWLSDSPLFDLIKQSKDREGPTDHLESACPLNLPLQNNHTAADMYLSPVRSPKKKGSTTRVNSTANAETQATSAFQTQKPLKSTSLSLFYKKVYRLAYLRLNTLCERLLSEHPELEHIIWTLFQHTLQNEYELMRDRHLDQIMMCSMYGICKVKNIDLKFKIIVTAYKDLPHAVQETFKRVLIKEEEYDSIIVFYNSVFMQRLKTNILQYASTRPPTLSPIPHIPRSPYKFPSSPLRIPGGNIYISPLKSPYKISEGLPTPTKMTPRSRILVSIGESFGTSEKFQKINQMVCNSDRVLKRSAEGSNPPKPLKKLRFDIEGSDEADGSKHLPGESKFQQKLAEMTSTRTRMQKQKMNDSMDTSNKEEK"}, "B2": {"name": "Rb-family protein p107 (protein, UniProt P28749 1-1068)", "chain": "MFEDKPHAEGAAVVAAAGEALQALCQELNLDEGSAAEALDDFTAIRGNYSLEGEVTHWLACSLYVACRKSIIPTVGKGIMEGNCVSLTRILRSAKLSLIQFFSKMKKWMDMSNLPQEFRERIERLERNFEVSTVIFKKYEPIFLDIFQNPYEEPPKLPRSRKQRRIPCSVKDLFNFCWTLFVYTKGNFRMIGDDLVNSYHLLLCCLDLIFANAIMCPNRQDLLNPSFKGLPSDFHTADFTASEEPPCIIAVLCELHDGLLVEAKGIKEHYFKPYISKLFDRKILKGECLLDLSSFTDNSKAVNKEYEEYVLTVGDFDERIFLGADAEEEIGTPRKFTRDTPLGKLTAQANVEYNLQQHFEKKRSFAPSTPLTGRRYLREKEAVITPVASATQSVSRLQSIVAGLKNAPSDQLINIFESCVRNPVENIMKILKGIGETFCQHYTQSTDEQPGSHIDFAVNRLKLAEILYYKILETVMVQETRRLHGMDMSVLLEQDIFHRSLMACCLEIVLFAYSSPRTFPWIIEVLNLQPFYFYKVIEVVIRSEEGLSRDMVKHLNSIEEQILESLAWSHDSALWEALQVSANKVPTCEEVIFPNNFETGNGGNVQGHLPLMPMSPLMHPRVKEVRTDSGSLRRDMQPLSPISVHERYSSPTAGSAKRRLFGEDPPKEMLMDKIITEGTKLKIAPSSSITAENVSILPGQTLLTMATAPVTGTTGHKVTIPLHGVANDAGEITLIPLSMNTNQESKVKSPVSLTAHSLIGASPKQTNLTKAQEVHSTGINRPKRTGSLALFYRKVYHLASVRLRDLCLKLDVSNELRRKIWTCFEFTLVHCPDLMKDRHLDQLLLCAFYIMAKVTKEERTFQEIMKSYRNQPQANSHVYRSVLLKSIPREVVAYNKNINDDFEMIDCDLEDATKTPDCSSGPVKEERGDLIKFYNTIYVGRVKSFALKYDLANQDHMMDAPPLSPFPHIKQQPGSPRRISQQHSIYISPHKNGSGLTPRSALLYKFNGSPSKSLKDINNMIRQGEQRTKKRVIAIDSDAESPAKRVCQENDDVLLKRLQDVVSERANH"}, "B3": {"name": "Retinoblastoma protein (Rb), endogenous (protein, UniProt P06400 1-928)", "chain": "MPPKTPRKTAATAAAAAAEPPAPPPPPPPEEDPEQDSGPEDLPLVRLEFEETEEPDFTALCQKLKIPDHVRERAWLTWEKVSSVDGVLGGYIQKKKELWGICIFIAAVDLDEMSFTFTELQKNIEISVHKFFNLLKEIDTSTKVDNAMSRLLKKYDVLFALFSKLERTCELIYLTQPSSSISTEINSALVLKVSWITFLLAKGEVLQMEDDLVISFQLMLCVLDYFIKLSPPMLLKEPYKTAVIPINGSPRTPRRGQNRSARIAKQLENDTRIIEVLCKEHECNIDEVKNVYFKNFIPFMNSLGLVTSNGLPEVENLSKRYEEIYLKNKDLDARLFLDHDKTLQTDSIDSFETQRTPRKSNLDEEVNVIPPHTPVRTVMNTIQQLMMILNSASDQPSENLISYFNNCTVNPKESILKRVKDIGYIFKEKFAKAVGQGCVEIGSQRYKLGVRLYYRVMESMLKSEEERLSIQNFSKLLNDNIFHMSLLACALEVVMATYSRSTSQNLDSGTDLSFPWILNVLNLKAFDFYKVIESFIKAEGNLTREMIKHLERCEHRIMESLAWLSDSPLFDLIKQSKDREGPTDHLESACPLNLPLQNNHTAADMYLSPVRSPKKKGSTTRVNSTANAETQATSAFQTQKPLKSTSLSLFYKKVYRLAYLRLNTLCERLLSEHPELEHIIWTLFQHTLQNEYELMRDRHLDQIMMCSMYGICKVKNIDLKFKIIVTAYKDLPHAVQETFKRVLIKEEEYDSIIVFYNSVFMQRLKTNILQYASTRPPTLSPIPHIPRSPYKFPSSPLRIPGGNIYISPLKSPYKISEGLPTPTKMTPRSRILVSIGESFGTSEKFQKINQMVCNSDRVLKRSAEGSNPPKPLKKLRFDIEGSDEADGSKHLPGESKFQQKLAEMTSTRTRMQKQKMNDSMDTSNKEEK"}}, "key": {"[1]": {"biological_target": "T7-His tagged C-terminal FoxM1b (residues 508–748), wild type (UniProt Q08050)", "assay": "pull-down; E. coli lysates of T7-His FoxM1b (508-748) WT or DD mixed with lysates holding GST-Rb or GST-CBP-KIX, bound to Ni-NTA agarose columns, washed 10 times with 25 mM imidazole in PBS pH 7.5, eluted with 250 mM imidazole, blots with Rb antibody or GST antibody"}, "[2]": {"biological_target": "T7-His tagged C-terminal FoxM1b (DD) mutant (508–748)", "assay": "pull-down; E. coli lysates of T7-His FoxM1b (508-748) WT or DD mixed with lysates holding GST-Rb or GST-CBP-KIX, bound to Ni-NTA agarose columns, washed 10 times with 25 mM imidazole in PBS pH 7.5, eluted with 250 mM imidazole, blots with Rb antibody or GST antibody"}, "[3]": {"biological_target": "GFP-FoxM1b S715D, S724D (DD)", "assay": "co-IP; Fig. S4: wild type and mutant FoxM1 tested for p130 and p107; cells and tag not told in the text shown"}, "[4]": {"biological_target": "GFP-FoxM1 full length (FL)", "assay": "co-IP; Fig. S4: wild type and mutant FoxM1 tested for p130 and p107; cells and tag not told in the text shown"}, "[5]": {"biological_target": "GFP fusion construct containing the N-terminal residues 1–332 of FoxM1 (UniProt Q08050)", "assay": "co-IP; lysates (700-800 ug) of MCF7 cells transiently transfected with GFP-FoxM1b constructs, 48 h; immunoprecipitated with GFP antibody; blots for endogenous Rb, DNMT3b, CBP; in one panel with co-expressed kinase-active or kinase-dead Plk1"}, "[6]": {"biological_target": "GFP-FoxM1b S715A, S724A (AA)", "assay": "co-IP; lysates (700-800 ug) of MCF7 cells transiently transfected with GFP-FoxM1b constructs, 48 h; immunoprecipitated with GFP antibody; blots for endogenous Rb, DNMT3b, CBP; in one panel with co-expressed kinase-active or kinase-dead Plk1"}, "[7]": {"biological_target": "GFP-FoxM1 mutant (232–748) (UniProt Q08050)", "assay": "co-IP; lysates (700-800 ug) of MCF7 cells transiently transfected with GFP-FoxM1b constructs, 48 h; immunoprecipitated with GFP antibody; blots for endogenous Rb, DNMT3b, CBP; in one panel with co-expressed kinase-active or kinase-dead Plk1"}, "GFP-FoxM1b (1–688)": {"biological_target": "GFP-FoxM1b (1–688)", "assay": "co-IP; lysates (700-800 ug) of MCF7 cells transiently transfected with GFP-FoxM1b constructs, 48 h; immunoprecipitated with GFP antibody; blots for endogenous Rb, DNMT3b, CBP; in one panel with co-expressed kinase-active or kinase-dead Plk1"}, "GFP-FoxM1b T596A": {"biological_target": "GFP-FoxM1b T596A", "assay": "co-IP; lysates (700-800 ug) of MCF7 cells transiently transfected with GFP-FoxM1b constructs, 48 h; immunoprecipitated with GFP antibody; blots for endogenous Rb, DNMT3b, CBP; in one panel with co-expressed kinase-active or kinase-dead Plk1"}, "GFP-FoxM1:710–748": {"biological_target": "GFP-FoxM1:710–748 (UniProt Q08050)", "assay": "co-IP; lysates (700-800 ug) of MCF7 cells transiently transfected with GFP-FoxM1b constructs, 48 h; immunoprecipitated with GFP antibody; blots for endogenous Rb, DNMT3b, CBP; in one panel with co-expressed kinase-active or kinase-dead Plk1"}, "[8]": {"biological_target": "GFP-FoxM1 full length (FL)", "assay": "co-IP; lysates (700-800 ug) of MCF7 cells transiently transfected with GFP-FoxM1b constructs, 48 h; immunoprecipitated with GFP antibody; blots for endogenous Rb, DNMT3b, CBP; in one panel with co-expressed kinase-active or kinase-dead Plk1"}, "[9]": {"biological_target": "T7 tagged phosphodefective mutant (T596A) of FoxM1", "assay": "co-IP; lysates (800 ug) of MDA-MB-453 cells transiently transfected with T7-tagged FoxM1 constructs; immunoprecipitated with monoclonal T7 antibody; blots for endogenous CBP, Rb, DNMT3b"}, "[10]": {"biological_target": "FoxM1, endogenous (detected with pan-FoxM1 antibody) (human (endogenous in MCF7))", "assay": "co-IP; extracts of MCF7 cells, endogenous proteins; immunoprecipitated with Rb, CBP, FoxM1 or P3 (phospho-FoxM1) antibody; blots with pan-FoxM1, P3, CBP, Rb, DNMT3b antibodies; in one panel cells treated with BI 2536 (100 nM, 24 h) or DMSO"}}, "note": "These are yes or no findings as the source states them, for the method shown. In cells and extracts the contact can be indirect. For some of these results: A result given as binding can be weak or reduced; the word gives no strength. For some of these results: Tags and fused reporters may be left off the sequences shown."}
{"binder": "B1", "values": [{"measurement": "binding", "setting": "[1]", "result": "binds"}, {"measurement": "binding", "setting": "[2]", "result": "no binding"}]}
{"binder": "B2", "values": [{"measurement": "binding", "setting": "[3]", "result": "binds weakly"}, {"measurement": "binding", "setting": "[4]", "result": "binds"}]}
{"binder": "B3", "values": [{"measurement": "binding", "setting": "[5]", "result": "no binding"}, {"measurement": "binding", "setting": "[6]", "result": "binds"}, {"measurement": "binding", "setting": "[7]", "result": "binds"}, {"measurement": "binding", "setting": "GFP-FoxM1b (1–688)", "result": "no binding"}, {"measurement": "binding", "setting": "GFP-FoxM1b T596A", "result": "binds"}, {"measurement": "binding", "setting": "GFP-FoxM1:710–748", "result": "no binding"}, {"measurement": "binding", "setting": "[8]", "result": "binds"}, {"measurement": "binding", "setting": "[9]", "result": "binds"}, {"measurement": "binding", "setting": "[10]", "result": "binds"}]}
